HELM strings list residues between dots; [ac] is acetyl, [am] amide, other brackets name non-standard units.
Assay: general procedure: Boc solid-phase peptide synthesis; Boc-Pro-Merrifield resin; DCC/HBT (DMAP catalyst for 4-MeBzl-Pmp/Mpa)
Conditions: late stage modification step

PEPTIDE1{[Pmp].[D-Tyr(Et)].F.V.N.C.P.[NHCH2-3-C6H4-CH2NH2]}$PEPTIDE1,PEPTIDE1,1:R3-6:R3$$$V2.0
step yield: 44%

Reference: US4624943 (dated 1986)
